# Values from PubChem BioAssay AID1259296 (Sanger Institute, 2017)
# Test: 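Kinase knock-downs that boost killing by anchor drugs in colorectal cancer cells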 (follow-up of hits)
# Cells: CAR1 human colorectal cancer cells
# Reagent: single siRNA against human genes
# Challenge: anchor drugs BYL719 at 1 µM, cetuximab at 5 µg/ml or trametinib at 10 nM, or DMSO vehicle, added a day after transfection
# Read-out: 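Viability of cells versus control pool 2 (non-targeting) averaged across replicates; for every anchor drug, synergy score comparing joint effect with drug or siRNA alone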
# Direction: synergy with BYL719 and synergy with cetuximab and synergy with trametinib: higher = stronger synergy between knock-down and drug; viability, siRNA plus trametinib and viability, siRNA alone (DMSO): higher = more viable cells
# Hit rule: 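Active when synergy exceeds 0.10 with BYL719, cetuximab or trametinib, any one sufficing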
# The whole screen tested 160 reagents; below is an unselected part. Over the whole deposit, 45 (28%) are marked active. 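Calls are per single siRNA duplex in CAR1 cells only; how the synergy score is calculated is not stated.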 The numbers tell different reagents against one gene apart. No viability above 1 is reported: the scale is capped. Reagent sequences are not shown. Not given: the amount of reagent, the time to read-out.
gene knocked down,siRNA no.,synergy with BYL719,synergy with cetuximab,synergy with trametinib,"viability, siRNA plus trametinib (fraction of control)","viability, siRNA alone (DMSO) (fraction of control)",outcome
COASY (Coenzyme A synthase),1,0.133,0.152,0.087,0.89,0.977,active
COASY (Coenzyme A synthase),2,0.21,0.111,0.0392,0.961,1,active
COASY (Coenzyme A synthase),3,0.0546,-0.00759,0.0684,0.478,0.546,inactive
COASY (Coenzyme A synthase),4,-0.0183,0.000164,0.0124,0.671,0.684,inactive
CAMK2N1 (calcium/calmodulin dependent protein kinase II inhibitor 1),1,0.0547,-0.027,-0.0424,0.936,0.894,inactive
CAMK2N1 (calcium/calmodulin dependent protein kinase II inhibitor 1),2,0.375,-0.0439,0,1,1,active
CAMK2N1 (calcium/calmodulin dependent protein kinase II inhibitor 1),3,-0.0701,-0.047,-0.0405,0.81,0.769,inactive
CAMK2N1 (calcium/calmodulin dependent protein kinase II inhibitor 1),4,-0.0024,-0.0149,0.0276,0.624,0.652,inactive
PINK1 (PTEN induced kinase 1),1,-0.201,-0.131,-0.0787,0.988,0.909,inactive
PINK1 (PTEN induced kinase 1),2,-0.089,-0.11,-0.0451,0.814,0.768,inactive
PINK1 (PTEN induced kinase 1),3,0.107,-0.0952,0.0219,0.625,0.647,active
PINK1 (PTEN induced kinase 1),4,-0.131,-0.137,-0.0094,0.801,0.791,inactive
SYNCRIP (synaptotagmin binding cytoplasmic RNA interacting protein),1,0.131,0.00819,0.138,0.805,0.943,active
SYNCRIP (synaptotagmin binding cytoplasmic RNA interacting protein),2,-0.0473,-0.0238,0.0386,0.949,0.988,inactive
SYNCRIP (synaptotagmin binding cytoplasmic RNA interacting protein),3,0.0981,-0.0308,0.0281,0.502,0.53,inactive
SYNCRIP (synaptotagmin binding cytoplasmic RNA interacting protein),4,-0.0478,-0.0516,-0.0351,0.866,0.831,inactive
"PRAG1 (PEAK1 related, kinase-activating pseudokinase 1)",1,0.335,0.045,0,1,1,active
"PRAG1 (PEAK1 related, kinase-activating pseudokinase 1)",2,0.442,-0.0064,0.0263,0.974,1,active
"PRAG1 (PEAK1 related, kinase-activating pseudokinase 1)",3,-0.0203,-0.0439,0,1,1,inactive
"PRAG1 (PEAK1 related, kinase-activating pseudokinase 1)",4,-0.0396,-0.0758,0.065,0.819,0.884,inactive
CSNK2A2 (casein kinase 2 alpha 2),1,-0.0907,-0.0722,0.0331,0.937,0.97,inactive
CSNK2A2 (casein kinase 2 alpha 2),2,0.0581,-0.0279,0.112,0.457,0.569,active
CSNK2A2 (casein kinase 2 alpha 2),3,0.0287,-0.0218,-0.0156,0.602,0.586,inactive
CSNK2A2 (casein kinase 2 alpha 2),4,0.019,0.00284,0.137,0.329,0.467,active
SYK (spleen associated tyrosine kinase),1,0.203,0.00764,0.0863,0.621,0.708,active
SYK (spleen associated tyrosine kinase),2,0.0318,0.0285,0.127,0.769,0.896,active
SYK (spleen associated tyrosine kinase),3,0.0915,-0.00503,0.096,0.76,0.856,inactive
SYK (spleen associated tyrosine kinase),4,-0.208,-0.146,-0.106,1,0.894,inactive
MAP3K8 (mitogen-activated protein kinase kinase kinase 8),1,-0.0562,-0.072,-0.0294,1,0.971,inactive
MAP3K8 (mitogen-activated protein kinase kinase kinase 8),2,0.0335,-0.126,-0.0834,0.838,0.755,inactive
MAP3K8 (mitogen-activated protein kinase kinase kinase 8),3,-0.0561,-0.0344,-0.159,0.916,0.757,inactive
MAP3K8 (mitogen-activated protein kinase kinase kinase 8),4,-0.097,-0.0672,-0.0805,1,0.919,inactive
GTF2H1 (general transcription factor IIH subunit 1),1,0.0172,-0.0375,-0.00231,0.924,0.921,inactive
GTF2H1 (general transcription factor IIH subunit 1),2,-0.0775,0.00487,0,1,1,inactive
GTF2H1 (general transcription factor IIH subunit 1),3,0.0343,0.021,0,1,1,inactive
GTF2H1 (general transcription factor IIH subunit 1),4,0.129,0.0848,0.149,0.702,0.851,active
PIK3CA,1,0.0632,0.0164,0.0614,0.711,0.773,inactive
PIK3CA,2,-0.117,-0.0428,0.0902,0.847,0.937,inactive
PIK3CA,3,0.00287,-0.0674,0.0422,0.844,0.886,inactive
PIK3CA,4,-0.118,-0.0639,0.000647,0.892,0.892,inactive
EPHA6 (EPH receptor A6),1,0.0435,-0.0695,0.0947,0.633,0.728,inactive
EPHA6 (EPH receptor A6),2,0.179,0.0538,0.153,0.557,0.71,active
EPHA6 (EPH receptor A6),3,0.144,0.204,0.235,0.561,0.796,active
EPHA6 (EPH receptor A6),4,-0.0263,0.0538,0.0908,0.909,1,inactive
CDKN2D (cyclin dependent kinase inhibitor 2D),1,-0.118,0.0564,0.0687,0.722,0.791,inactive
CDKN2D (cyclin dependent kinase inhibitor 2D),2,-0.0169,-0.101,0.161,0.693,0.854,active
CDKN2D (cyclin dependent kinase inhibitor 2D),3,-0.185,-0.161,-0.113,0.99,0.877,inactive
CDKN2D (cyclin dependent kinase inhibitor 2D),4,0.105,-0.00494,0.147,0.792,0.939,active
NR2F2 (nuclear receptor subfamily 2 group F member 2),1,-0.0606,-0.000436,0.0975,0.786,0.884,inactive
NR2F2 (nuclear receptor subfamily 2 group F member 2),2,-0.00603,-0.119,0.0149,0.907,0.922,inactive
NR2F2 (nuclear receptor subfamily 2 group F member 2),3,-0.0713,-0.0133,0.0367,0.914,0.95,inactive
NR2F2 (nuclear receptor subfamily 2 group F member 2),4,-0.11,-0.142,-0.172,0.961,0.789,inactive

Already shown: 7 of the entries above.
gene knocked down,siRNA no.,synergy with BYL719,synergy with cetuximab,synergy with trametinib,"viability, siRNA plus trametinib (fraction of control)","viability, siRNA alone (DMSO) (fraction of control)",outcome
PIK3CA,4,-0.118,-0.0639,0.000647,0.892,0.892,inactive
EPHA6 (EPH receptor A6),1,0.0435,-0.0695,0.0947,0.633,0.728,inactive
EPHA6 (EPH receptor A6),2,0.179,0.0538,0.153,0.557,0.71,active
EPHA6 (EPH receptor A6),3,0.144,0.204,0.235,0.561,0.796,active
EPHA6 (EPH receptor A6),4,-0.0263,0.0538,0.0908,0.909,1,inactive
CDKN2D (cyclin dependent kinase inhibitor 2D),1,-0.118,0.0564,0.0687,0.722,0.791,inactive
CDKN2D (cyclin dependent kinase inhibitor 2D),2,-0.0169,-0.101,0.161,0.693,0.854,active
